Molecules are shown by their SMILES.

The series can be described thus: Isothermal titration calorimeter (ITC), binding of Gd^3+ to ligand. The conditions noted are these: 25° C.; for Ka (association constant) / N (number of Gd^3+ coupled to a single ligand) / ΔH: pH = 4.5; for ΔG: pH = 4.5, calculated from ΔG=−RT·lnKa; for ΔS: pH = 4.5, calculated from ΔG=−RT·lnKa=ΔH−TΔS. How it is done:
In order to quantify binding isotherms of paramagnetic metal ions Gd^3+ with a ligand solution, an ITC test is executed at a VP-ITC isothermal titration microcalorimeter (Microcal, USA). Data collection, analysis and plotting are executed with help of software package Origin, version 8.0 from Microcal. A sample cell has a 1.43 mL volume. The cell is filled with a water-soluble buffer solution of the above compound 1a-e ligand (0.2 mM). A water-soluble buffer solution of Gd^3+ (1.0 mM) is input into a 300 μL continuous agitated (300 rpm) syringe and 10 μL aliquots thereof is injected into the cell. At a 3-mins interval, the cell is delivered over 20 s. Data points are collected on a 2 s basis. The measurement is executed at 25° C. All titrations are executed three times to secure data consistency and solution stability. These titration isotherms are integrated to find out an enthalpy change at each injection. In order to fit well with two mathematically different sets of site models, the titration isotherms are analyzed. Via a calorie measurement, parameters including a binding constant (Ka), a change in enthalpy (ΔH), a stoichiometry of binding (N) are calculated. Next, a free energy (ΔG) and an entropy change (ΔS) are calculated using a following complexation equation: Mn++nL↔MLn:ΔG=−RT·InKa=ΔH-TΔS,
where, R indicates a universal gas constant; T is Kelvin temperature.

With `NC1CCC(NC(=O)CN2CCN(CC(=O)O)CCN(CC(=O)O)CCN(CC(=O)O)CC2)CC1` (centres unmarked) [1d], the “Ka (association constant)” value was 3.41 10^4M^−1, the “N (number of Gd^3+ coupled to a single ligand)” value amounted to 0.19, the ΔH worked out at 4.33 kcal/mol and the ΔG is -6.19 kcal/mol. The ΔS was 35.30 cal · mol^−1 · K^−1.

With `NCCNC(=O)C1CCC(CNC(=O)CN2CCN(CC(=O)O)CCN(CC(=O)O)CCN(CC(=O)O)CC2)CC1` (centres unmarked) [1c], the “Ka (association constant)” value is given as 5.97 10^4M^−1, the “N (number of Gd^3+ coupled to a single ligand)” value was determined as 0.28, the ΔH is 5.94 kcal/mol and the ΔG was -6.52 kcal/mol. In addition, the ΔS is given as 41.80 cal · mol^−1 · K^−1.

Consider `O=C(O)CN1CCN(CC(=O)O)CCN(CC(=O)NCC2CCC(C(=O)O)CC2)CCN(CC(=O)O)CC1` (centres unmarked) [1b], for which the “Ka (association constant)” value is 25.10 10^4M^−1, the “N (number of Gd^3+ coupled to a single ligand)” value is reported as 0.37, the ΔH was found to be 7.13 kcal/mol and the ΔG was -7.35 kcal/mol. Moreover, the ΔS is reported as 48.60 cal · mol^−1 · K^−1.

For `CCOC(=O)C1CCC(CNC(=O)CN2CCN(CC(=O)O)CCN(CC(=O)O)CCN(CC(=O)O)CC2)CC1` (centres unmarked) [1a], the “Ka (association constant)” value is listed as 5.19 10^4M^−1, the “N (number of Gd^3+ coupled to a single ligand)” value amounted to 0.89, the ΔH turned out to be 4.19 kcal/mol and the ΔG was -6.42 kcal/mol. In addition, the ΔS was 35.60 cal · mol^−1 · K^−1.

The values above are taken from patent US10245328B2, “Gadolinium complex comprising DO3A-tranexamic acid conjugate” (KYUNGPOOK NATIONAL UNIVERSITY INDUSTRY-ACADEMIC COOPERATION …, priority 2014, dated 2019).
